In PubChem BioAssay (NCATS):
“And” between values parts separate entries of the source, which are not always exact repeats. Equal entries are not always repeated. This list was built around the results that the source calls inconclusive (neither active nor inactive); the mix of calls is not that of the screen. For some assays here: Potencies beside an inconclusive call are fits to weak or partial responses and may not hold up. The source holds several records for some structures; these can differ, active in one and inactive in another. The source made the active and inactive calls. The call rests on the fitted dose curve; in most records, active means well fitted curve in the direction sought with a large enough effect; inconclusive means small, poorly fitted or top-dose-only effect, or another doubt; inactive means no such curve, though single readings can be large; an effect the other way counts as inactive or inconclusive.

Chains of the proteins cited; added tags and fusions are not shown. Residues count along the entry.
UniProt P14618, whole entry, looked up: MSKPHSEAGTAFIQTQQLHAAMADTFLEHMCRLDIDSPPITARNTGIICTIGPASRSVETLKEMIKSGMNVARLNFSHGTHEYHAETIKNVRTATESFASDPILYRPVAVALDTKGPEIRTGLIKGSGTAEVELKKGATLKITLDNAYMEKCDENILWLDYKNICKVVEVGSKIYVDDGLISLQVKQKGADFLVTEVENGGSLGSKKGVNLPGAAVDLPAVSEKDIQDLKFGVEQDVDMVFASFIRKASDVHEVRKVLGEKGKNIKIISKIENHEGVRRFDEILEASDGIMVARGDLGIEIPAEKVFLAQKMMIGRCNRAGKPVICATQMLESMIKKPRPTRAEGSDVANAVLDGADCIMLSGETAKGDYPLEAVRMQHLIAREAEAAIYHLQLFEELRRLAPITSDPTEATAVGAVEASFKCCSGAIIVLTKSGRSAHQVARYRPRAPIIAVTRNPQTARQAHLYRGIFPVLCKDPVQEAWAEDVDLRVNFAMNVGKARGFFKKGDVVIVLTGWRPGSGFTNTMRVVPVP
UniProt Q27686, 2-499 E452W: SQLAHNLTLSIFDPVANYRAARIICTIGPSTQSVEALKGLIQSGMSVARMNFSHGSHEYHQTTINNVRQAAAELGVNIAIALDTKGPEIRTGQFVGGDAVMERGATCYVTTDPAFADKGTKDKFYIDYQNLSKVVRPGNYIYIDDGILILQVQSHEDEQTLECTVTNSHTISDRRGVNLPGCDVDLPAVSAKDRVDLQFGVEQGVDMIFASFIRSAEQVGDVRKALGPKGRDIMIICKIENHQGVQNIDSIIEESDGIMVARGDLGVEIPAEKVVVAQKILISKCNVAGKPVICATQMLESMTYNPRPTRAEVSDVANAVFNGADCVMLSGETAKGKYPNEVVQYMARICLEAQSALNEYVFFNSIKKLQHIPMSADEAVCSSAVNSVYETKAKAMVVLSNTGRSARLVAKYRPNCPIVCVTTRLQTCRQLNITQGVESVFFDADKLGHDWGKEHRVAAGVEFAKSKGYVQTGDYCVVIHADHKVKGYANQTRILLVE

Experiments:
[1] = MultiTox-Fluor Cytotoxicity Assay - LYMP1-001 - Live Cells (AID 947); further: potency means the concentration at half of the fitted maximal effect
[2] = Cell Viability - LYMP1-002 - Assay at 16 hr (AID 948); further: potency means the concentration at half of the fitted maximal effect
Method in brief: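 Seed 2500 LYMP1-002 cells per well in complete medium and hold 5 hr at 37 C. Add compound across a concentration series and incubate 16 hr at 37 C. Add CellTiter-Glo, wait 30 min at room temperature, read luminescence.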

[3] = MultiTox-Fluor Cytotoxicity Assay - LYMP1-002 - Live Cells (AID 955);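 further: cells exposed to compound for 16 hours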; further: potency means the concentration at half of the fitted maximal effect
Method in brief: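 Cells were seeded at 2500 per well and incubated 5 hr. Compounds were then added for 16 hr at 37 C, followed by MultiTox-Fluor reagent for 60 min at room temperature and fluorescence reading of viable-cell protease signal.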

[4] = MultiTox-Fluor Cytotoxicity Assay - LYMP1-003 - Dead Cells (AID 961); conditions: LYMP1-003 lymphoblastoid cells, dead-cell protease fluorescence;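 further: potency means the concentration at half of the fitted maximal effect; cells exposed to compound for 16 h at 37 °C; nearly all actives have a fitted effect of over 70% in size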
Method in brief: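 Human lymphoblastoid LYMP1-003 cells (2500/well) were treated with compounds for 16 hr at 37 C in complete medium. Dead-cell protease release was read by bis-AAF-R110 fluorescence (Ex/Em 485/520). AC50 came from Hill fits, normalized to DMSO and 15 uM tetraoctylammonium bromide.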

[5] = Cell Viability - LYMP1-003 - Assay at 24 hr (AID 963); conditions: LYMP1-003 lymphoblastoid cell viability; further: potency means the concentration at half of the fitted maximal effect
Method in brief: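 Cytotoxicity is scored as a concentration-dependent fall in ATP-linked luciferase signal in human lymphoblastoid LYMP1-003 cells treated 24 hr at 37 C in complete culture medium.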

[6] = MultiTox-Fluor Cytotoxicity Assay - LYMP1-002 - Dead Cells (AID 960); further: potency means the concentration at half of the fitted maximal effect; nearly all actives have a fitted effect of over 60% in size
Method in brief: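 Cells were plated, rested 5 hr, then treated with compound dilution series for 16 hr at 37 C. After adding substrate reagent and 60 min at room temperature, dead-cell protease fluorescence gave concentration-response curves fitted by the Hill equation.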

[7] = biological target: Pyruvate kinase PKM (Homo sapiens) (UniProt P14618); assay: qHTS Assay for Inhibitors of Human Muscle Pyruvate Kinase (AID 958)
Method in brief: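 A coupled luminescent readout tracked ATP made from ADP by purified PKM2. Final conditions included 0.1 nM enzyme, PEP and ADP at 0.5 and 0.1 mM, pH 7.2 imidazole buffer with BSA, and a one-hour room-temperature reaction.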

[8] = biological target: Pyruvate kinase (Leishmania mexicana) (UniProt Q27686); assay: qHTS Validation Assay for Activators of Leishmania Mexicana Pyruvate Kinase (AID 959); conditions: purified L. mexicana pyruvate kinase, enzyme activity
Method in brief: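 LmPYK E451W 0.2 nM; 0.5 mM PEP, 0.1 mM ADP, 7 mM MgCl2, 50 mM KCl, imidazole pH 7.2, 0.01% Tween 20, 0.05% BSA; 1 h RT; PKLight luminescence; DMSO-normalized.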

[9] = MultiTox-Fluor Cytotoxicity Assay - LYMP1-003 - Live Cells (AID 962);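 further: cells exposed to compound for 16 hours at 37 °C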; further: potency means the concentration at half of the fitted maximal effect
Method in brief: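 Acute cytotoxicity is scored as a drop in live-cell protease activity in human lymphoblastoid LYMP1-003 cells after 16 hr compound exposure at 37 C. AC50 values come from Hill-equation modelling of concentration-response data.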

**Q.** For `COc1cc(OC)c(OC)cc1C=O`, which Potency [1] is on record?
**A.** inconclusive: 0.316 µM [cytotoxic, full curve]

**Q.** Which results are given for `C[C@@H]1C[C@@H]([C@H](O)CC2CC(=O)NC(=O)C2)C(=O)[C@@H](C)C1`?
**A.** Potency [1]: inconclusive: 2.51 µM [cytotoxic, partial curve]; Potency [2]: inconclusive: 1.26 µM [cytotoxic, full curve]; Potency [3]: inconclusive: 1 µM [cytotoxic, full curve]; Potency [4]: active: 50.1 µM; Potency [5]: inconclusive: 2.51 µM [cytotoxic, full curve]

**Q.** Which Potency [1] does the source give for `Clc1ccc(COC(Cn2ccnc2)c2ccc(Cl)cc2Cl)cc1` (configuration not stated) here?
**A.** inconclusive: 39.8 µM [cytotoxic, partial curve, poor fit]

**Q.** What about the Potency [6] of the same molecule?
**A.** inconclusive: 31.6 µM [cytotoxic, single point]

**Q.** With `C[C@]12CCC(=O)C[C@@H]1CC[C@@H]1[C@@H]2CC[C@]2(C)[C@@H](O)CC[C@@H]12` as the molecule, how does the Potency [3] read?
**A.** inactive

**Q.** For `O=c1c2ccccc2[se]n1-c1ccccc1`, which Potency [7] is on record?
**A.** active: 10 µM

**Q.** For `C[C@H](N)[C@H](O)c1ccc(O)c(O)c1`, which Potency [8] is on record?
**A.** inconclusive: 3.16 µM [activator, full curve]

**Q.** Which Potency [8] does the source give for `CN1C[C@H](CNC(=O)OCc2ccccc2)C[C@@H]2c3cccc4c3c(cn4C)C[C@H]21` here?
**A.** active: 12.6 µM

**Q.** For `Oc1cccc2cccnc12`, which Potency [4] is on record?
**A.** inconclusive: 25.1 µM [cytotoxic, full curve] and inconclusive: 25.1 µM [cytotoxic, partial curve]

**Q.** And the Potency [5]?
**A.** inconclusive: 25.1 µM [cytotoxic, partial curve]

**Q.** With `O=S(=O)(c1ccc(Cl)cc1)c1ccc(Cl)cc1` as the molecule, how does the Potency [9] read?
**A.** inactive

**Q.** For `[O]=[Cr](=[O])([OH])[O][Cr](=[O])(=[O])[OH]`, which Potency [9] is on record?
**A.** inconclusive: 6.31 µM [cytotoxic, partial curve]

**Q.** Which Potency [5] does the source give for `Clc1ccc(C(c2ccc(Cl)cc2)C(Cl)(Cl)Cl)cc1` here?
**A.** inconclusive: 79.4 µM [cytotoxic, single point]
